From patent publication US20250084044A1, “PROTOPORPHYRINOGEN OXIDASE INHIBITORS” (Enko Chem, Inc., priority 2022, published 2025)
Some of these results come from one statement about several compounds together.

biological target: T1, mutant ΔG210-AmPPO (Amaranthus tuberculatus, UniProt Q0NZW9, DEL211-211, form not given); assay type: biochemical, Amaranthus tuberculantum; conditions: Example 17b; read-out: IC50 in the AG210 PPO in vitro assay
T1 sequence (Q0NZW9 with tags, fused parts or gaps DEL211-211): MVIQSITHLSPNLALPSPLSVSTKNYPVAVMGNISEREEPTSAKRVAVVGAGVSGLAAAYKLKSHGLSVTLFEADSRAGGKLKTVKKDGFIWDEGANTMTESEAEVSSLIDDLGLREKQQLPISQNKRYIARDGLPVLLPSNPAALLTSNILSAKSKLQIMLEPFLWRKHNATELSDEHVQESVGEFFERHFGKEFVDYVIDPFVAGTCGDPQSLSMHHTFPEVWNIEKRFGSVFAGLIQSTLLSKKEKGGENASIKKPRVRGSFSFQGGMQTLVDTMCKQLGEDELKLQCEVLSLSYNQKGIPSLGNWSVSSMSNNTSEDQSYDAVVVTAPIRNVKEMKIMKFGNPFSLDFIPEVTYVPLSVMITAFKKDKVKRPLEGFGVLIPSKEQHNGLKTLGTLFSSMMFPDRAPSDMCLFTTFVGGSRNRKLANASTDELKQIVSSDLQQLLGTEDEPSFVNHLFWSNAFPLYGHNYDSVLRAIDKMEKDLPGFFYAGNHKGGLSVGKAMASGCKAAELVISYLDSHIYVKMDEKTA

Row | Compound | IC50
1 | COC(=O)[C@@H](C)N1C(=O)C(F)(F)Oc2cc(F)c(-c3c(F)c(F)c(OC)c(F)c3F)cc21 [Compound 112, methyl (R)-2-(2,2,7-trifluoro-3-oxo-6-(2,3,5,6-tetrafluoro-4-methoxyphenyl)-2,3-dihydro-4H-benzo[b][1,4]oxazin-4-yl)propanoate] | < 100 nM
2 | COc1c(F)c(F)c(-c2cc3c(cc2F)OC(F)(F)C(=O)N3[C@@H](C)C(=O)O)c(F)c1F [Compound 113, (S)-2-(2,2,7-trifluoro-3-oxo-6-(2,3,5,6-tetrafluoro-4-methoxyphenyl)-2,3-dihydro-4H-benzo[b][1,4]oxazin-4-yl)propanoic acid] | < 100 nM
3 | COc1c(F)c(F)c(-c2cc3c(cc2F)OC(F)(F)C(=O)N3[C@H](C)C(=O)O)c(F)c1F [Compound 114, (R)-2-(2,2,7-trifluoro-3-oxo-6-(2,3,5,6-tetrafluoro-4-methoxyphenyl)-2,3-dihydro-4H-benzo[b][1,4]oxazin-4-yl)propanoic acid] | < 1000 nM
4 | CCC[C@@H](C(=O)OC)N1C(=O)C(F)(F)Oc2cc(F)c(-c3c(F)c(F)c(F)c(F)c3F)cc21 [Compound 115, methyl (S)-2-(2,2,7-trifluoro-3-oxo-6-(perfluorophenyl)-2,3-dihydro-4H-benzo[b][1,4]oxazin-4-yl)pentanoate] | < 100 nM
5 | CCC[C@H](C(=O)OC)N1C(=O)C(F)(F)Oc2cc(F)c(-c3c(F)c(F)c(F)c(F)c3F)cc21 [Compound 116, methyl (R)-2-(2,2,7-trifluoro-3-oxo-6-(perfluorophenyl)-2,3-dihydro-4H-benzo[b][1,4]oxazin-4-yl)pentanoate] | < 100 nM
6 | CCC[C@@H](C(=O)O)N1C(=O)C(F)(F)Oc2cc(F)c(-c3c(F)c(F)c(F)c(F)c3F)cc21 [Compound 117, (S)-2-(2,2,7-trifluoro-3-oxo-6-(perfluorophenyl)-2,3-dihydro-4H-benzo[b][1,4]oxazin-4-yl)pentanoic acid] | < 1000 nM
7 | CCC[C@H](C(=O)O)N1C(=O)C(F)(F)Oc2cc(F)c(-c3c(F)c(F)c(F)c(F)c3F)cc21 [Compound 118, (R)-2-(2,2,7-trifluoro-3-oxo-6-(perfluorophenyl)-2,3-dihydro-4H-benzo[b][1,4]oxazin-4-yl)pentanoic acid] | < 1000 nM
8 | COC(=O)[C@@H]1CS(=O)(=O)CCN1C(=O)CN1C(=O)C(F)(F)Oc2cc(F)c(-c3c(F)c(F)c(F)c(F)c3F)cc21 [Compound 119, methyl (R)-4-(2-(2,2,7-trifluoro-3-oxo-6-(perfluorophenyl)-2,3-dihydro-4H-benzo[b][1,4]oxazin-4-yl)acetyl)thiomorpholine-3-carboxylate 1,1-dioxide] | < 1000 nM
9 | O=C(O)[C@@H]1CS(=O)(=O)CCN1C(=O)CN1C(=O)C(F)(F)Oc2cc(F)c(-c3c(F)c(F)c(F)c(F)c3F)cc21 [Compound 120, (R)-4-(2-(2,2,7-trifluoro-3-oxo-6-(perfluorophenyl)-2,3-dihydro-4H-benzo[b][1,4]oxazin-4-yl)acetyl)thiomorpholine-3-carboxylic acid 1,1-dioxide] | < 1000 nM
10 | O=C(O)[C@H]1CS(=O)(=O)CCN1C(=O)CN1C(=O)C(F)(F)Oc2cc(F)c(-c3c(F)c(F)c(F)c(F)c3F)cc21 [Compound 121, (S)-4-(2-(2,2,7-trifluoro-3-oxo-6-(perfluorophenyl)-2,3-dihydro-4H-benzo[b][1,4]oxazin-4-yl)acetyl)thiomorpholine-3-carboxylic acid 1,1-dioxide] | < 100 nM
11 | COC(=O)[C@H](CC(C)C)N1C(=O)C(F)(F)Oc2cc(F)c(-c3c(F)c(F)c(F)c(F)c3F)cc21 [Compound 122, methyl (S)-4-methyl-2-(2,2,7-trifluoro-3-oxo-6-(perfluorophenyl)-2,3-dihydro-4H-benzo[b][1,4]oxazin-4-yl)pentanoate] | < 100 nM
12 | COC(=O)[C@@H](CC(C)C)N1C(=O)C(F)(F)Oc2cc(F)c(-c3c(F)c(F)c(F)c(F)c3F)cc21 [Compound 123, methyl (R)-4-methyl-2-(2,2,7-trifluoro-3-oxo-6-(perfluorophenyl)-2,3-dihydro-4H-benzo[b][1,4]oxazin-4-yl)pentanoate] | < 100 nM
13 | CC(C)C[C@@H](C(=O)O)N1C(=O)C(F)(F)Oc2cc(F)c(-c3c(F)c(F)c(F)c(F)c3F)cc21 [Compound 124, (S)-4-methyl-2-(2,2,7-trifluoro-3-oxo-6-(perfluorophenyl)-2,3-dihydro-4H-benzo[b][1,4]oxazin-4-yl)pentanoic acid] | < 100 nM
14 | CC(C)C[C@H](C(=O)O)N1C(=O)C(F)(F)Oc2cc(F)c(-c3c(F)c(F)c(F)c(F)c3F)cc21 [Compound 125, (R)-4-methyl-2-(2,2,7-trifluoro-3-oxo-6-(perfluorophenyl)-2,3-dihydro-4H-benzo[b][1,4]oxazin-4-yl)pentanoic acid] | < 100 nM
15 | COC(=O)[C@@H]1COCCN1C(=O)CN1C(=O)C(F)(F)Oc2cc(F)c(-c3c(F)c(F)c(F)c(F)c3F)cc21 [Compound 126, methyl (S)-4-(2-(2,2,7-trifluoro-3-oxo-6-(perfluorophenyl)-2,3-dihydro-4H-benzo[b][1,4]oxazin-4-yl)acetyl)morpholine-3-carboxylate] | < 100 nM
16 | O=C(O)[C@@H]1COCCN1C(=O)CN1C(=O)C(F)(F)Oc2cc(F)c(-c3c(F)c(F)c(F)c(F)c3F)cc21 [Compound 127, (S)-4-(2-(2,2,7-trifluoro-3-oxo-6-(perfluorophenyl)-2,3-dihydro-4H-benzo[b][1,4]oxazin-4-yl)acetyl)morpholine-3-carboxylic acid] | < 100 nM
17 | COC(=O)c1ccc(CCN2C(=O)C(F)(F)Oc3cc(F)c(-c4c(F)c(F)c(F)c(F)c4F)cc32)cc1 [Compound 128, methyl 4-(2-(2,2,7-trifluoro-3-oxo-6-(perfluorophenyl)-2,3-dihydro-4H-benzo[b][1,4]oxazin-4-yl)ethyl)benzoate] | < 100 nM
18 | O=C(O)c1ccc(CCN2C(=O)C(F)(F)Oc3cc(F)c(-c4c(F)c(F)c(F)c(F)c4F)cc32)cc1 [Compound 129] | < 100 nM
19 | COC(=O)CCNC(=O)[C@H](C)N1C(=O)C(F)(F)Oc2cc(F)c(-c3c(F)c(F)c(F)c(F)c3F)cc21 [Compound 130, methyl (S)-3-(2-(2,2,7-trifluoro-3-oxo-6-(perfluorophenyl)-2,3-dihydro-4H-benzo[b][1,4]oxazin-4-yl)propanamido)propanoate] | < 100 nM
20 | COC(=O)CCNC(=O)[C@@H](C)N1C(=O)C(F)(F)Oc2cc(F)c(-c3c(F)c(F)c(F)c(F)c3F)cc21 [Compound 131, methyl (R)-3-(2-(2,2,7-trifluoro-3-oxo-6-(perfluorophenyl)-2,3-dihydro-4H-benzo[b][1,4]oxazin-4-yl)propanamido)propanoate] | < 100 nM
21 | COC(=O)CCN(C)C(=O)[C@H](C)N1C(=O)C(F)(F)Oc2cc(F)c(-c3c(F)c(F)c(F)c(F)c3F)cc21 [Compound 132, methyl (S)-3-(N-methyl-2-(2,2,7-trifluoro-3-oxo-6-(perfluorophenyl)-2,3-dihydro-4H-benzo[b][1,4]oxazin-4-yl)propanamido)propanoate] | < 100 nM
22 | COC(=O)CCN(C)C(=O)[C@@H](C)N1C(=O)C(F)(F)Oc2cc(F)c(-c3c(F)c(F)c(F)c(F)c3F)cc21 [Compound 133, methyl (R)-3-(N-methyl-2-(2,2,7-trifluoro-3-oxo-6-(perfluorophenyl)-2,3-dihydro-4H-benzo[b][1,4]oxazin-4-yl)propanamido)propanoate] | < 100 nM
